These results are taken from article PMC8547426.

Protein sequences, listed by entry. Tags and fused reporters are not part of them. Lines headed by an entry give the natural chain unless they say otherwise; changes in a name come on top.
UniProt Q01094: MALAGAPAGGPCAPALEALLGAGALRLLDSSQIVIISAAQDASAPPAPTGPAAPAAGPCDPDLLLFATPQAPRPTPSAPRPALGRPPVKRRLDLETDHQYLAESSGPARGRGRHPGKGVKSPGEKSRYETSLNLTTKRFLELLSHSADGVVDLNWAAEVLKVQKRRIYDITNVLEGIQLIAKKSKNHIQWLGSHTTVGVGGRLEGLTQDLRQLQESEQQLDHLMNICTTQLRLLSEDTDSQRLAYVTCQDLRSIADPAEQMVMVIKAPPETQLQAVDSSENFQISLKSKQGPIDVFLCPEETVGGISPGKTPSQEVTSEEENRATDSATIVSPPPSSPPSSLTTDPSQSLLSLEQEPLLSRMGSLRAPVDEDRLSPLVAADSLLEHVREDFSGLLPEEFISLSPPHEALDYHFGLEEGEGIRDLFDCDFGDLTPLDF

In the test the target is E2F transcription factor 1 (E2F1) (human (endogenous in HCT-116)) (UniProt Q01094). Description: co-IP; HCT-116 cells lysed; 1.0-1.2 mg total protein incubated with antibody overnight, then 2 h with 20 uL beads at 4°C; western blot of the immunocomplex; the precipitating antibody is not stated. For orientation: A western blot detects proteins with antibodies after separation by electrophoresis.

No constants are given. Whether binding was seen depends on the method and setting. In cells and extracts the contact can be indirect. Some results given as binding are weak or reduced against the parent protein; the word gives no strength.

B1: RING Finger and WD Repeat Domain 3 (RFWD3) (protein, UniProt Q6PCD5 1-774)
chain: MAHEAMEYDVQVQLNHAEQQPAPAGMASSQGGPALLQPVPADVVSSQGVPSILQPAPAEVISSQATPPLLQPAPQLSVDLTEVEVLGEDTVENINPRTSEQHRQGSDGNHTIPASSLHSMTNFISGLQRLHGMLEFLRPSSSNHSVGPMRTRRRVSASRRARAGGSQRTDSARLRAPLDAYFQVSRTQPDLPATTYDSETRNPVSEELQVSSSSDSDSDSSAEYGGVVDQAEESGAVILEEQLAGVSAEQEVTCIDGGKTLPKQPSPQKSEPLLPSASMDEEEGDTCTICLEQWTNAGDHRLSALRCGHLFGYRCISTWLKGQVRKCPQCNKKARHSDIVVLYARTLRALDTSEQERMKSSLLKEQMLRKQAELESAQCRLQLQVLTDKCTRLQRRVQDLQKLTSHQSQNLQQPRGSQAWVLSCSPSSQGQHKHKYHFQKTFTVSQAGNCRIMAYCDALSCLVISQPSPQASFLPGFGVKMLSTANMKSSQYIPMHGKQIRGLAFSSYLRGLLLSASLDNTIKLTSLETNTVVQTYNAGRPVWSCCWCLDEANYIYAGLANGSILVYDVRNTSSHVQELVAQKARCPLVSLSYMPRAASAAFPYGGVLAGTLEDASFWEQKMDFSHWPHVLPLEPGGCIDFQTENSSRHCLVTYRPDKNHTTIRSVLMEMSYRLDDTGNPICSCQPVHTFFGGPTCKLLTKNAIFQSPENDGNILVCTGDEAANSALLWDAASGSLLQDLQTDQPVLDICPFEVNRNSYLATLTEKMVHIYKWE
As to B1, the binding result is given as “binds”.
